The target of the assay is T1, HA-Alba1 (Trypanosoma brucei) (UniProt Q385X1).
T1 sequence: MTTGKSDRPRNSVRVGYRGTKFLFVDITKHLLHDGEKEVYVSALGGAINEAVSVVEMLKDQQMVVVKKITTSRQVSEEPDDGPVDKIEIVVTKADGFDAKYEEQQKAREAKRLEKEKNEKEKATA
In words: co-IP; HA-tagged bait induced with tetracycline in procyclic T. brucei; extract in IP buffer (20 mM Tris-HCl pH 7.6, 150 mM NaCl, 1 mM EDTA, 1 mM DTT, 0.5% NP-40) with RNase inhibitor; anti-HA affinity matrix, 2 h, 4°C; immunoblot with Alba-specific or anti-P0 antibodies; cycloheximide or puromycin before the CoIP did not affect Alba3/eIF4E4. For orientation: Immunoblotting shows a protein as a band on a membrane.

Results are given in words; binding and its absence hold for the method and conditions named. In cells and extracts the contact can be indirect. Where a sequence is shown, tags or fusion partners need not be part of it.

B1: Alba2 (protein, UniProt Q385X2 1-117)
chain: MSEKGGDDSRSSQVRVSVKRRNFSYVDSIKVRLSGGKPEVTISALGKAISDAVAVAEILKNQGLIDVKKITTSRGAAESDGDAVNDKIEILITKSKDFDTIYAEQQKRKLENADKKE
As for B1, the binding entry is recorded as “no binding”.
